Laboratory results from patent publication US20160046678A1 (ZYNGENIA, published 2016).
These are yes or no findings as the source states them, for the method shown. Some entries that bind do so weakly or less than the wild type.

T1: Angiopoietin-2 (Ang2) (human, UniProt O15123 19-496, biotin label in Examples 22-24)
T1 construct: also called rhAng2; recombinant Ang2
T1 sequence (looked up): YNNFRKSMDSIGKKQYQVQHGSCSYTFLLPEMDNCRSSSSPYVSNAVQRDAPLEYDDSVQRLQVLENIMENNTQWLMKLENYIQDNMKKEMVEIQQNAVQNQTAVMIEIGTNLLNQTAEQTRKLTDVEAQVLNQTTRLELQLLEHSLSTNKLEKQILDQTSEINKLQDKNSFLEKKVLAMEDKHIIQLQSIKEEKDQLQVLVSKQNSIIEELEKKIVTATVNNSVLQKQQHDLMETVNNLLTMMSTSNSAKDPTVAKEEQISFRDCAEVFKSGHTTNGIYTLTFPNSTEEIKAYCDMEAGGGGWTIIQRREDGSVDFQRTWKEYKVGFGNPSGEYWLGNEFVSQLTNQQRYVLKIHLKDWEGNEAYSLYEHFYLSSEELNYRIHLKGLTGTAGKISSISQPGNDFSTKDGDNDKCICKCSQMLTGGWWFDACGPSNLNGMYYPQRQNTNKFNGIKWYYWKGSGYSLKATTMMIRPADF


target: T1, Angiopoietin-2 (Ang2); experiment: Example 48, method not detailed

Binder | binding
PHQRHLECYFYPNPPECY [ANG699] | binds
SDMDCYFYPNPPHCFTPP [ANG696] | binds
VMLDCYFYPNPLDCYWLT [ANG677] | binds
SYLDFTDCYFYPNPPHCY [ANG700] | binds
SPNDCYFYPNPPECYTHR [ANG665] | binds
AQVDCYFFPNPTHCYFDR [ANG704] | binds
LGEDCYWYPNPPHCYGML [ANG707] | binds
FHFVLYDCYFYPNPPYCF [ANG662] | binds
LQVDSLDCYFYPNPPHCY [ANG693] | binds
LLAACYFYPNPPLCFTST [ANG683] | binds
APGYTQDCYWFPNPPHCY [ANG701] | binds
MSLPHQNCYFFPNPTYCY [ANG688] | binds
TEIECYFYPNPPQCYAIH [ANG686] | binds
RFSSFHDCYFYPNPSHCY [ANG702] | binds
IEGDCYFYPNPPHCYEQN [ANG659] | binds
RTGTLGDCYFYPNPRHCY [ANG657] | binds
FNYSMYDCYFYPNPAHCY [ANG660] | binds
HIKDCYFFPNPPHCYKST [ANG698] | binds

Binder | binding
MLVVPSDCYFYPNPSHCY [ANG692] | binds
WPTDCFFFPNPPHCYHDG [ANG670] | binds
GGVPMTDCYFYPNPRHCY [ANG667] | binds
DFRDCYSFPNPTQCYINT [ANG668] | binds
LVLPLFDCYFYPNPPHCY [ANG661] | binds
DEADCYYYPNPPHCYSGH [ANG672] | binds
SSLEHNDCYFYPNPMHCY [ANG679] | binds
HILDCYFYPNPPHCYLVT [ANG671] | binds
FFESSFDCYFFPNPNHCY [ANG691] | binds
QLMDCYFFPNPHHCFESK [ANG694] | binds
FLADCYLFPNPPHCYLDY [ANG706] | binds
YGDECYFFPNPPHCFSWD [ANG689] | binds
HRADCYFFPNPMDCYQWR [ANG663] | binds
QSVRYMDCYFYPNPSHCY [ANG674] | binds
ASLGLYDCYYFPNPPNCY [ANG655] | binds
MGDDCYFYPNPPRCYVKP [ANG705] | binds
PPTSLADCYFFPNPLHCY [ANG682] | binds

Next, values leading:

binding | Binder
binds | ECYFYPNPPHCYMEHRST [ANG685]
binds | IVITSLACYFYPNPLHCY [ANG666]
binds | TLVSMMDCYYYPNPPHCY [ANG673]
binds | RHVDCYFYPNPPHCYLVL [ANG680]
binds | DCYFYPNPPHCYNERYEA [ANG695]
binds | PRMDCYFYPNPPHCYNGQ [ANG687]
binds | GADTMQWNDCYFFPNPTHCY [ANG697]
binds | LSGPFLDCYFYPNPTHCY [ANG676]
binds | NDSVVSECYFFPNPPHCY [ANG708]
binds | STNLALDCYFYPNPPHCY [ANG664]
binds | WYDPYYACYFYPNPTYCY [ANG675]
binds | IYPECYFYPNPKSCYSDQ [ANG681]
binds | SPLDCYFYPNPPHCYYAH [ANG658]
binds | HSHHLTDCYYFPNPLHCY [ANG703]
binds | GEEDCYFYPNPPHCYSEL [ANG684]
